PubChem BioAssay AID652243, Drosophila RNAi Screening Center – 2013

Aim: 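Knock-downs that decrease or increase androgen receptor reporter signal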 (primary screen)
Cell system: Drosophila S2R+ cells
Reagents: long dsRNA against Drosophila genes
Duration: 72 h (48 h, then 24 h hormone)
Treatment: synthetic androgen R1881 at 10 nM for 24 h
Read-out: 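Per-well raw luminescence of the androgen-driven firefly reporter and of the Renilla control, two replicates each, without normalisation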
Reading the numbers: firefly reporter light: higher = more light from androgen-responsive reporter; Renilla control light: higher = more constitutive control signal (cell number, transfection)
Active means: 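Across duplicate plates, a knock-down whose log firefly/Renilla ratio shifted a set fold down or up from the GFP/LacZ control mean was a hit; the downward cut appears as both 1.5 and 3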
Meaning of the calls: active = hit: reporter lowered or raised; inactive = no hit
The deposit covers about 24,000 reagents; this is a random part of those that have a named target and a result. Of all reagents, 246 (1%) were called active. 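Plates not normalised; calls are printed but the firefly/Renilla ratio behind them is not deposited; fold cut for lowering reported inconsistently.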 The raw values are shown without normalisation. The record does not give: the amount of reagent.

pbl [DRSC11381] scored firefly reporter light, replicate 1 = 9.05e5; firefly reporter light, replicate 2 = 7.50e5; Renilla control light, replicate 1 = 9.21e5; Renilla control light, replicate 2 = 1.17e6; inactive.
Silencing of pbl [DRSC26301] resulted in: firefly reporter light, replicate 1 = 3.73e5; firefly reporter light, replicate 2 = 2.83e5; Renilla control light, replicate 1 = 6.54e5; Renilla control light, replicate 2 = 6.80e5; inactive.
CG17195 [DRSC15188] showed firefly reporter light, replicate 1 = 2.50e5; firefly reporter light, replicate 2 = 2.90e5; Renilla control light, replicate 1 = 2.41e6; Renilla control light, replicate 2 = 2.67e6; inactive.
Knock-down of CG17195 [DRSC26415] came out at: firefly reporter light, replicate 1 = 2.43e5; firefly reporter light, replicate 2 = 2.18e5; Renilla control light, replicate 1 = 7.09e5; Renilla control light, replicate 2 = 4.35e5; inactive.
Silencing of CG4661 [DRSC19910] resulted in: firefly reporter light, replicate 1 = 4.73e5; firefly reporter light, replicate 2 = 4.26e5; Renilla control light, replicate 1 = 4.55e6; Renilla control light, replicate 2 = 3.23e6; inactive.
For CG4372 [DRSC04466] the deposit lists firefly reporter light, replicate 1 = 2.31e5; firefly reporter light, replicate 2 = 3.08e5; Renilla control light, replicate 1 = 2.36e6; Renilla control light, replicate 2 = 2.16e6; inactive.
With knock-down of SrpRbeta [DRSC21668], the screen gave firefly reporter light, replicate 1 = 6.63e5; firefly reporter light, replicate 2 = 6.48e5; Renilla control light, replicate 1 = 2.40e6; Renilla control light, replicate 2 = 2.86e6; inactive.
Silencing of SrpRbeta [DRSC27853] came out at: firefly reporter light, replicate 1 = 7.05e5; firefly reporter light, replicate 2 = 3.74e5; Renilla control light, replicate 1 = 3.73e6; Renilla control light, replicate 2 = 1.39e6; inactive.
With knock-down of CG32344 [DRSC08578], the record shows firefly reporter light, replicate 1 = 9.14e5; firefly reporter light, replicate 2 = 9.22e5; Renilla control light, replicate 1 = 1.88e6; Renilla control light, replicate 2 = 1.36e6; inactive.
With knock-down of PGRP-SB1 [DRSC11090], the record shows firefly reporter light, replicate 1 = 2.11e5; firefly reporter light, replicate 2 = 1.27e5; Renilla control light, replicate 1 = 1.64e6; Renilla control light, replicate 2 = 1.42e6; inactive.
Against ZAP3 [DRSC17852], the values are firefly reporter light, replicate 1 = 1.07e5; firefly reporter light, replicate 2 = 75915; Renilla control light, replicate 1 = 7.59e5; Renilla control light, replicate 2 = 6.53e5; inactive.
ZAP3 [DRSC17853] scored firefly reporter light, replicate 1 = 2.24e5; firefly reporter light, replicate 2 = 3.95e5; Renilla control light, replicate 1 = 3.58e6; Renilla control light, replicate 2 = 4.19e6; inactive.
Depletion of ZAP3 [DRSC18249] came out at: firefly reporter light, replicate 1 = 2.61e5; firefly reporter light, replicate 2 = 3.31e5; Renilla control light, replicate 1 = 2.27e6; Renilla control light, replicate 2 = 2.70e6; inactive.
CG13113 [DRSC02211] scored firefly reporter light, replicate 1 = 1.46e5; firefly reporter light, replicate 2 = 1.50e5; Renilla control light, replicate 1 = 1.31e6; Renilla control light, replicate 2 = 1.32e6; inactive.
Against p38c [DRSC22939] the deposit lists firefly reporter light, replicate 1 = 4.50e5; firefly reporter light, replicate 2 = 1.04e6; Renilla control light, replicate 1 = 9.97e5; Renilla control light, replicate 2 = 2.41e6; inactive.
For p38c [DRSC39293], the entry reads inactive.
Depletion of GstO3 [DRSC10710] came out at: firefly reporter light, replicate 1 = 1.17e5; firefly reporter light, replicate 2 = 1.15e5; Renilla control light, replicate 1 = 1.57e6; Renilla control light, replicate 2 = 1.20e6; inactive.
Against Diap1 [DRSC11404], the values are firefly reporter light, replicate 1 = 103; inactive.
Gmppa [DRSC07108] scored firefly reporter light, replicate 1 = 78383; firefly reporter light, replicate 2 = 1.06e5; Renilla control light, replicate 1 = 1.52e6; Renilla control light, replicate 2 = 1.52e6; inactive.
Depletion of Gmppa [DRSC25683] came out at: firefly reporter light, replicate 1 = 9.19e5; firefly reporter light, replicate 2 = 8.90e5; Renilla control light, replicate 1 = 1.11e6; Renilla control light, replicate 2 = 1.27e6; inactive.
With knock-down of CG6443 [DRSC02958], the record shows firefly reporter light, replicate 1 = 1.19e6; firefly reporter light, replicate 2 = 5.28e5; Renilla control light, replicate 1 = 3.01e6; Renilla control light, replicate 2 = 1.79e6; inactive.
Knock-down of CG6443 [DRSC30036] gave: firefly reporter light, replicate 1 = 3.93e5; firefly reporter light, replicate 2 = 2.95e5; Renilla control light, replicate 1 = 9.74e5; Renilla control light, replicate 2 = 1.11e6; inactive.
